This is an account of results in PMC6482197, “Inhibition of HtrA2 alleviated dextran sulfate sodium (DSS)-induced colitis by preventing necroptosis of intestinal epithelial cells” (Cell Death & Disease, 2019).

Protein sequences, listed by entry. Tags and fused reporters are not part of them.
UniProt Q13546: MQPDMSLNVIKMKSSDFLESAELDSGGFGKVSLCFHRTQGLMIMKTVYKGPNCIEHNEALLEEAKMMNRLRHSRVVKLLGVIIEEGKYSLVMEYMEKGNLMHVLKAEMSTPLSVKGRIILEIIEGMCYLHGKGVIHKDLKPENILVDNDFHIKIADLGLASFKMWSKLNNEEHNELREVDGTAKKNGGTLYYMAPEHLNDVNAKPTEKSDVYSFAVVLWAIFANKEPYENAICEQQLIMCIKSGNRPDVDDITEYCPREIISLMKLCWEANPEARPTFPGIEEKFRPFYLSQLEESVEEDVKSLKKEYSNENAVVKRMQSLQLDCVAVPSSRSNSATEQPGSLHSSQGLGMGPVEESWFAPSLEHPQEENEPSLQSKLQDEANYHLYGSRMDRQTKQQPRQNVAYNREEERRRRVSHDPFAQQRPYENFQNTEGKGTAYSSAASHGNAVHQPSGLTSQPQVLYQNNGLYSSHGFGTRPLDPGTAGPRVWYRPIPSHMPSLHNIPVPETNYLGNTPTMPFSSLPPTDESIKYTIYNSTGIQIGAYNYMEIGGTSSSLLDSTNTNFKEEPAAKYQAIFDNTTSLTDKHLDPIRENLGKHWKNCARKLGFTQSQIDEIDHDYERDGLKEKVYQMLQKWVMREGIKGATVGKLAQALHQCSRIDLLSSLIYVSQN
UniProt Q9Y572: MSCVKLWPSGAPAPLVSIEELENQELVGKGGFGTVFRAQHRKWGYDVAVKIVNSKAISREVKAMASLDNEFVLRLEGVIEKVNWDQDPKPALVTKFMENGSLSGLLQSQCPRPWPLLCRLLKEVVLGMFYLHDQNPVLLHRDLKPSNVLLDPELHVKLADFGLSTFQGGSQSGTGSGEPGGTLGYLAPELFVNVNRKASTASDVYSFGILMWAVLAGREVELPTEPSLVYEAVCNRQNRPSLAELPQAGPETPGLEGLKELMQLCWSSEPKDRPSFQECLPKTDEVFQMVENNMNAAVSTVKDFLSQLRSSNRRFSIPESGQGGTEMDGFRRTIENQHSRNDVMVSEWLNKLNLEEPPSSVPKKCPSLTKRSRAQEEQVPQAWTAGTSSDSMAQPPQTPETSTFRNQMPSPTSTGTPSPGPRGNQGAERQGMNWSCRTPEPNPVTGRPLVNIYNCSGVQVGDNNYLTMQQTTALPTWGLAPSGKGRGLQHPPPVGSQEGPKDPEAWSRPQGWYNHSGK

Results are given in words; binding and its absence hold for the method and conditions named. Binding seen in cells or lysates may run through a third protein. Some entries that bind do so weakly or less than the wild type.

The test deals with RIPK1 (human (endogenous in HT-29)) (UniProt Q13546). Briefly: co-IP; immunoprecipitation with anti-RIPK1 antibody, then immunoblotting; HT-29-shNC or HT-29-shHtrA2 cells stimulated with T/S/Z for indicated times. For orientation: Immunoblotting shows a protein as a band on a membrane.

In the case of RIPK3 (from UniProt Q9Y572 1-518), the binding result is “binds”.
